This is one part of the list.
molecular target: OsWRKY34 (Oryza sativa, UniProt Q0JBA9 1-250); assay: protein-binding microarray (RPBM); PBS, 2% BSA, 51.3 ng/ul salmon testes DNA, 50 uM zinc acetate, 200 nM TF, 25 C, 1 h; high values mean tight binding; settings: protein: recombinant; tags: N-terminal polyhistidine and DsRed monomer fusion (pET32a); label: CyDye5-dUTP incorporated in the synthesized complementary strand; 3' TTTTT single-stranded linker to array surface; dsDNA, one strand shown
In short: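 An Axon 4000B scanner gave the binding signal as per-feature fluorescence intensity in arbitrary units. This followed washing of a custom Agilent array that had been incubated for 1 h at 25 °C with 200 nM protein in PBS, 2% BSA, salmon testes DNA and 50 µM zinc acetate. The proteins were transcription factors fused at the N-terminus to polyhistidine and DsRed, expressed in E. coli BL21-CodonPlus and purified on Ni–NTA.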

Chains of the proteins cited; added tags and fusions are not shown.
UniProt Q0JBA9, entry or part of it: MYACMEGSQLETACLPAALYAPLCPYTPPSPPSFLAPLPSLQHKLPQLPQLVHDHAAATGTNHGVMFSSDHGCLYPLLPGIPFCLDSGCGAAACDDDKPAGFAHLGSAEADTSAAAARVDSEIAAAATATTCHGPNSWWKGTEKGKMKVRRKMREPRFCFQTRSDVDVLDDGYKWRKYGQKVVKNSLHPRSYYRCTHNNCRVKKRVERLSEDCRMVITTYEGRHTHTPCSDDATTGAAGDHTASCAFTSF

Sequence	binding signal
GCTTCGCTGATTCTCCATCTTCGCCGGATTAACGCACAAACGGAGTCACCTAGTGCAG	8950 fluorescence intensity (a.u.)
GGGGTCGTCGTGGCGGAGAAGGCGGCCGCGGCGCGTTCTCCGGAGTCACCTAGTGCAG	8730 fluorescence intensity (a.u.)
CGCCGCCATGGCCGCCGATCCGTGTCTTCCCTTGCGGCCTCGGAGTCACCTAGTGCAG	8110 fluorescence intensity (a.u.)
TTCCTTGCTCCACCACAACACCGTCGACTCGAGGCGCACGCGGAGTCACCTAGTGCAG	9350 fluorescence intensity (a.u.)
GCCAGTGTCACCTAATTATCTGTCGTTTATTTTATATTGTCGGAGTCACCTAGTGCAG	9890 fluorescence intensity (a.u.)
TGGGAGGGGTAGAATCGTCATTACAAGACAAAGATGTCGGCGGAGTCACCTAGTGCAG	10700 fluorescence intensity (a.u.)
TTTGGCTTATCTTGTTCTTTTTCCATTTAAATATTAGCCCCGGAGTCACCTAGTGCAG	8430 fluorescence intensity (a.u.)
GGGGAGGAGCAGTTGCCGCCGTCGCTGGCCTCGGTGAATCCGGAGTCACCTAGTGCAG	8430 fluorescence intensity (a.u.)
CTTCAGTGTTCTTGACGACCTTGCTGCTTCTTGCCTCTGTCGGAGTCACCTAGTGCAG	10000 fluorescence intensity (a.u.)
TCCAAACACGCTCTCTTCATCTAGCTCGAGTCCAACAAACCGGAGTCACCTAGTGCAG	9000 fluorescence intensity (a.u.)
CTCCTCCGCTCCACTCCCACCCGTCGCCGCCACCGCGTGCCGGAGTCACCTAGTGCAG	8340 fluorescence intensity (a.u.)
CATGATACTATAGCATCCACTTTGTTCATCTTTTTCGTTTCGGAGTCACCTAGTGCAG	8630 fluorescence intensity (a.u.)
ACATTACGTATGTTCTATTTGTTTTTTGGTTGGGGTGTGTCGGAGTCACCTAGTGCAG	9250 fluorescence intensity (a.u.)
CCCAACACGACCCATCCCATCACTCTGTCCAACCGGGCCTCGGAGTCACCTAGTGCAG	9700 fluorescence intensity (a.u.)
GCCGATCTCCTCTGCACCGCCGCCCACGATTCGCCGCCGTCGGAGTCACCTAGTGCAG	8940 fluorescence intensity (a.u.)
GCCTCACCTCCGGCCACCGACCACCGCCGCCTCCGCGTCCCGGAGTCACCTAGTGCAG	9680 fluorescence intensity (a.u.)
CTTAGCTACCTGTTCTGCTTGTCAAGTTGTCATGTTGTATCGGAGTCACCTAGTGCAG	12000 fluorescence intensity (a.u.)
GGAGTTTACCAGCCTAGCGTCTATGTTGCTCATTTTTGTTCGGAGTCACCTAGTGCAG	8030 fluorescence intensity (a.u.)
TCTGCGGACTGCGGCTCTGCCCATACACGCTTATCAATGCCGGAGTCACCTAGTGCAG	8730 fluorescence intensity (a.u.)
GCCGCCTCATCCCGCACCGCTACGCCGGCCACGCCGCCTCCGGAGTCACCTAGTGCAG	10200 fluorescence intensity (a.u.)
ATACTTGATTAACCATACGTTTAACTCGTCGTTTCCTTTTCGGAGTCACCTAGTGCAG	9510 fluorescence intensity (a.u.)

Rewritten in CSV form: part of the list above.
Sequence,binding signal
TTCCTTGCTCCACCACAACACCGTCGACTCGAGGCGCACGCGGAGTCACCTAGTGCAG,9350 fluorescence intensity (a.u.)
GCCAGTGTCACCTAATTATCTGTCGTTTATTTTATATTGTCGGAGTCACCTAGTGCAG,9890 fluorescence intensity (a.u.)
TGGGAGGGGTAGAATCGTCATTACAAGACAAAGATGTCGGCGGAGTCACCTAGTGCAG,10700 fluorescence intensity (a.u.)
TTTGGCTTATCTTGTTCTTTTTCCATTTAAATATTAGCCCCGGAGTCACCTAGTGCAG,8430 fluorescence intensity (a.u.)
GGGGAGGAGCAGTTGCCGCCGTCGCTGGCCTCGGTGAATCCGGAGTCACCTAGTGCAG,8430 fluorescence intensity (a.u.)
CTTCAGTGTTCTTGACGACCTTGCTGCTTCTTGCCTCTGTCGGAGTCACCTAGTGCAG,10000 fluorescence intensity (a.u.)

(list continues)

Sequence	binding signal
TTTTTTTTTTTTGCGGGGCTTGACATCTGTTGTTTGACCTCGGAGTCACCTAGTGCAG	9300 fluorescence intensity (a.u.)
TCCACGTCACTTGGCCCCACCTGTCACCCACCCATCCGAACGGAGTCACCTAGTGCAG	8410 fluorescence intensity (a.u.)
CATGCTTTTCTTTCTGTACTTCCTGCCTAAACTTTGCCTACGGAGTCACCTAGTGCAG	9710 fluorescence intensity (a.u.)
CCCATCGCCCACCCCGCTCGTCGCTTGCTCTGGCCTTCTCCGGAGTCACCTAGTGCAG	8080 fluorescence intensity (a.u.)
GTAACTGAGTCATCTCTAATTTCTAACTCCCATGGAATTACGGAGTCACCTAGTGCAG	8760 fluorescence intensity (a.u.)
TTGATACCGTTGATTTTTTACACATGTTTAACCGTTCGTCCGGAGTCACCTAGTGCAG	8120 fluorescence intensity (a.u.)
CTGCTTCATTTGTCTCCACTTTTTGGTTTTTACAATTATTCGGAGTCACCTAGTGCAG	14300 fluorescence intensity (a.u.)
GCCGCCATCCCACAGCTTTCCTAGGGTTAATCCTCCCGCGCGGAGTCACCTAGTGCAG	10600 fluorescence intensity (a.u.)
ACACCTTCACACCATCATCTCTTTGCTTGATTCACCTGGACGGAGTCACCTAGTGCAG	12400 fluorescence intensity (a.u.)
TGTGTGTCGGTGTATCAAATTACATTTTAAAAATTAATATCGGAGTCACCTAGTGCAG	9090 fluorescence intensity (a.u.)
AGCGGGGCAGAGCGCGGGGCGGGAGATGGCGACAAGTTCGCGGAGTCACCTAGTGCAG	8620 fluorescence intensity (a.u.)
AGCTCTGAATTCCTCTGTTTCGTCTGTTCTCGTCTTCAGCCGGAGTCACCTAGTGCAG	16200 fluorescence intensity (a.u.)
ATTATTTTCTTGTTTTAGTTCAATTCAATTCTTCCATGAACGGAGTCACCTAGTGCAG	8840 fluorescence intensity (a.u.)
GTCCCTAAGATAATATGTTTTGAATCTAACGTTTGGCTACCGGAGTCACCTAGTGCAG	8270 fluorescence intensity (a.u.)
TATATTCCGCGCTCTACCTTGTTTTTCTAGGGCTCAAACCCGGAGTCACCTAGTGCAG	8790 fluorescence intensity (a.u.)
AATTCAATCTTATGAAAATTTTTCCATCCTTGACTACTAACGGAGTCACCTAGTGCAG	8180 fluorescence intensity (a.u.)
CCCATTTCCCTTGCCGTTTCTCGCGCACGAATCTGAACAACGGAGTCACCTAGTGCAG	8280 fluorescence intensity (a.u.)
TTCCTGTGAAAGTCGCACGCATGCATTTGTCTGTTTCGTACGGAGTCACCTAGTGCAG	9820 fluorescence intensity (a.u.)
TACGTTCTTCGCGAGCTCATTTGCTTTGTGGGAATTGGGGCGGAGTCACCTAGTGCAG	16100 fluorescence intensity (a.u.)
GCCAAGATTGGAGAAGATGGGGAGATGAAGGGGTGGGGACCGGAGTCACCTAGTGCAG	9020 fluorescence intensity (a.u.)
GTGGCTTGAATTGTGTTGTCTCGGGTTGAAATCCCTCACTCGGAGTCACCTAGTGCAG	8340 fluorescence intensity (a.u.)

Sequence	binding signal
AACTCAAATTTTGGGTCCATTCTACATACCGTACACCGGCCGGAGTCACCTAGTGCAG	8140 fluorescence intensity (a.u.)
TCTTCTTCCATGGTCTTTTCTAGATAAGGCTCTCTAATGTCGGAGTCACCTAGTGCAG	8620 fluorescence intensity (a.u.)
GTTAGGCATGCTGCTTGTTTATTTTTTTTCAAGTTGAGAACGGAGTCACCTAGTGCAG	8140 fluorescence intensity (a.u.)
CTTCTTGATCCACCGATTGTTCTTCGATTTCTTGCTTCTTCGGAGTCACCTAGTGCAG	11300 fluorescence intensity (a.u.)
AATTAGGGACCAGTCCGCCGTATCAACGTTTACCGTTTCTCGGAGTCACCTAGTGCAG	8520 fluorescence intensity (a.u.)
AAATTTTTAATAACTACAAGTACTTTCTTTAACTTTAACACGGAGTCACCTAGTGCAG	8210 fluorescence intensity (a.u.)
GGGCGAGGAGCAGCGGCGGGCGGGCGGATGAGGGGCGGCGCGGAGTCACCTAGTGCAG	11400 fluorescence intensity (a.u.)
ACGCATCGCGTTGACGCCGCTCCGCCCTCTTTCCTTTGCACGGAGTCACCTAGTGCAG	10300 fluorescence intensity (a.u.)
GCTCTCGCGCCGCGGTCGCTTTCCTTCCCCTAAATTAAATCGGAGTCACCTAGTGCAG	9340 fluorescence intensity (a.u.)
GGATGGGGAGTTGATTGCGGGAGGGATGAGTGTGGACGCACGGAGTCACCTAGTGCAG	12200 fluorescence intensity (a.u.)
ATGTATCCTGTATGGTTTGTTTGAGCCTTAGTTTTTCAATCGGAGTCACCTAGTGCAG	10600 fluorescence intensity (a.u.)
TGCATCTTCTTCTCTACTCCACGGCCGCGACATCGAACTTCGGAGTCACCTAGTGCAG	13800 fluorescence intensity (a.u.)
ACACTATTTTTTTATTTTTCATGTGTAATTTTGGTTCATACGGAGTCACCTAGTGCAG	9940 fluorescence intensity (a.u.)
GACTACTGAATGTGCTATTCTTGGCCTTTTCTATAGATAACGGAGTCACCTAGTGCAG	9960 fluorescence intensity (a.u.)
AGAAAAGTTGTGCCAAGCGGACCCAAAAACTGTCCCTTATCGGAGTCACCTAGTGCAG	8830 fluorescence intensity (a.u.)
CAGACTTGCGGTGGATGGGGCGGTGGGGAAAGCATAAATGCGGAGTCACCTAGTGCAG	14300 fluorescence intensity (a.u.)
CCGGCCGCTGCCATCTCCGCACCCCGCTTCCAGTTCTGACCGGAGTCACCTAGTGCAG	8280 fluorescence intensity (a.u.)
GAAGATTGAATCCCTCTGGTGTATATTACCTTCTGTTCTTCGGAGTCACCTAGTGCAG	8860 fluorescence intensity (a.u.)
CCTTCCTCACTTTTGGTGTCTTCTGCTTTCGTCACAAGGACGGAGTCACCTAGTGCAG	8500 fluorescence intensity (a.u.)
ATGCTTCTTTTTTTTTTCCCTTATCTTTTACGGGGAGGAGCGGAGTCACCTAGTGCAG	10300 fluorescence intensity (a.u.)
CCTTCCTTTTCCGCTCTCTTTCACCGTCCCCGCCGCGTCCCGGAGTCACCTAGTGCAG	8790 fluorescence intensity (a.u.)

Sequence	binding signal
CTCACCGGTCATTCGCAGCCCACCAACCTCCAAAGCCGGTCGGAGTCACCTAGTGCAG	9220 fluorescence intensity (a.u.)
TAGGTCGCTCGCTGCTCACTCTACACAGCAGCATGTTTTCCGGAGTCACCTAGTGCAG	9800 fluorescence intensity (a.u.)
GTTTTCCCAGCGCTGCCGTCTCTTCCGCCGCACTTTTAGACGGAGTCACCTAGTGCAG	9520 fluorescence intensity (a.u.)
ACACCAGCCGACCCCTAACTCGATCTCGTCTCCGTATATACGGAGTCACCTAGTGCAG	10600 fluorescence intensity (a.u.)
CCCACATGAATACCCTGCACTACCACCAACACACCACTCGCGGAGTCACCTAGTGCAG	9750 fluorescence intensity (a.u.)
TGGTTATTATCACTTCCCTGTTAGTACTTGTGGCTTATTACGGAGTCACCTAGTGCAG	13500 fluorescence intensity (a.u.)
CTAACTTTTATAACATACTAGCGCTCACAGTCTCGTCACACGGAGTCACCTAGTGCAG	12300 fluorescence intensity (a.u.)
TCCGCCTCCGCCGCCGCCTCGCCGTCCGCCTCCGCGGCCGCGGAGTCACCTAGTGCAG	10300 fluorescence intensity (a.u.)
TTGGCTACTGTATTGGGGATTAATTTGGGTAATTACTACTCGGAGTCACCTAGTGCAG	11100 fluorescence intensity (a.u.)
CCCTCGTCTTCTTCTCCACGCGACGCCGGTCAAAGTTTGACGGAGTCACCTAGTGCAG	10700 fluorescence intensity (a.u.)
TGGTATCGAAAGTTCATGTTTTTGGTTTTATAGTACCGAACGGAGTCACCTAGTGCAG	9430 fluorescence intensity (a.u.)
GTGATTAGCCATTCCTCTTCTCATCTCTAGCCACTTCGCTCGGAGTCACCTAGTGCAG	8100 fluorescence intensity (a.u.)
CCACCATTTTTTATTAATTTCTGTATGAAACTGACAAGTGCGGAGTCACCTAGTGCAG	8090 fluorescence intensity (a.u.)
ACGATTGTTATGTTTGATTCTCTCGTACGATTGCTCACGGCGGAGTCACCTAGTGCAG	8460 fluorescence intensity (a.u.)
GGACCTATTTGGAGAGTTTCTAGCTGCTGTAGTTTTCCACCGGAGTCACCTAGTGCAG	8220 fluorescence intensity (a.u.)
GTAAATCCGCTCCAATTGACTCTACCAACCCACCCGTGCTCGGAGTCACCTAGTGCAG	9420 fluorescence intensity (a.u.)
GAGGCTGCATCTACCGCATCAGTTTGGTCATCGATCTTCACGGAGTCACCTAGTGCAG	10300 fluorescence intensity (a.u.)
CGCTTTCCAATTACCACACTTTCTTTCTTCTCTGAATGTACGGAGTCACCTAGTGCAG	9650 fluorescence intensity (a.u.)
ACTGCAACTACTACTACTTTCTTTTATTTATAGCTACTTACGGAGTCACCTAGTGCAG	13400 fluorescence intensity (a.u.)
GTGCACACAACGCTTATAGACAACACATATCACATTCTTTCGGAGTCACCTAGTGCAG	8460 fluorescence intensity (a.u.)
TTAGCCTCCGTTAACACTGTACAATTTTGTCCAAATGACCCGGAGTCACCTAGTGCAG	8530 fluorescence intensity (a.u.)

Source: article PMC7819943, “Rice protein-binding microarrays: a tool to detect cis-acting elements near promoter regions in rice”
